We go through 2 substances from paper PMC6546063.

Chains of the proteins cited; added tags and fusions are not shown.
UniProt O00308: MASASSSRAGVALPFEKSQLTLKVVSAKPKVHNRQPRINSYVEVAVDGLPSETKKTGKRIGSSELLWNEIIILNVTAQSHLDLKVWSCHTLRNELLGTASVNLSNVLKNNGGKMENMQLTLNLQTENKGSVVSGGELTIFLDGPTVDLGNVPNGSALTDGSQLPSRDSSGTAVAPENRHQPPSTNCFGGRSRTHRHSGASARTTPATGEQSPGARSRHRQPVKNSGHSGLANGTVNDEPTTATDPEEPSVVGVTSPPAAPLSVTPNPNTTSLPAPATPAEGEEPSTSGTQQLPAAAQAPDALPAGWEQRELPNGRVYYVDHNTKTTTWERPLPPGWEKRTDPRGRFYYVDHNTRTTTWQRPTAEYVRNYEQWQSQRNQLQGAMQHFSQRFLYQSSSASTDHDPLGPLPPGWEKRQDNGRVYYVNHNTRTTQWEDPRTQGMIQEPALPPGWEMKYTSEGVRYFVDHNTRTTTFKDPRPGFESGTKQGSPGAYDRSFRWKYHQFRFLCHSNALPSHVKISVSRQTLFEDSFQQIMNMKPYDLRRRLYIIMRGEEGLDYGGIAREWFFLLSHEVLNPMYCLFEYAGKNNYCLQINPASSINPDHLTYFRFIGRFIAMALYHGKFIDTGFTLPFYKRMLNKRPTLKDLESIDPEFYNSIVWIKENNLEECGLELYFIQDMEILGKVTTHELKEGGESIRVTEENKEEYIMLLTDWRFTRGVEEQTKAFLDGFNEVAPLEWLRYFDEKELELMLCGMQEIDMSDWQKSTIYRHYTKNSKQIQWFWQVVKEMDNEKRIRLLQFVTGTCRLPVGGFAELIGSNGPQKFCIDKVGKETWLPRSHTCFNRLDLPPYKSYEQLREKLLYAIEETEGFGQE
UniProt P13010: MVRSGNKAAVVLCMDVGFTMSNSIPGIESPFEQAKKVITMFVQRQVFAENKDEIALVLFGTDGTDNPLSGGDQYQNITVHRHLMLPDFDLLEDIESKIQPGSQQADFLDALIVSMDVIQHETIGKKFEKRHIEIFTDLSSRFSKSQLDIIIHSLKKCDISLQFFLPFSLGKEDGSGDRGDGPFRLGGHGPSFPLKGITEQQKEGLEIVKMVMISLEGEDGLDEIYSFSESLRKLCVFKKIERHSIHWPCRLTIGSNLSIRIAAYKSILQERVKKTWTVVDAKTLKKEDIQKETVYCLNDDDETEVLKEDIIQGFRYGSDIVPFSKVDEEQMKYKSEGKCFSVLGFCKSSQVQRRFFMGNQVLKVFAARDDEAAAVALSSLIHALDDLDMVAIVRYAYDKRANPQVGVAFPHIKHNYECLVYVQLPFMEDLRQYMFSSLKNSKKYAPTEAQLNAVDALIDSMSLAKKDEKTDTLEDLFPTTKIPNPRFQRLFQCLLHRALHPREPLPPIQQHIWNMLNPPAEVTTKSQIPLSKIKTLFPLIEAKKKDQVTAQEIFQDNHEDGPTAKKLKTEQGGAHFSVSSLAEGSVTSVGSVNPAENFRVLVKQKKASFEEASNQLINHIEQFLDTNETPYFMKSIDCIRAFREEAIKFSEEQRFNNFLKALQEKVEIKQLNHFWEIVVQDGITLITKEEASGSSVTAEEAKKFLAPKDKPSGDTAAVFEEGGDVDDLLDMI
UniProt P09874: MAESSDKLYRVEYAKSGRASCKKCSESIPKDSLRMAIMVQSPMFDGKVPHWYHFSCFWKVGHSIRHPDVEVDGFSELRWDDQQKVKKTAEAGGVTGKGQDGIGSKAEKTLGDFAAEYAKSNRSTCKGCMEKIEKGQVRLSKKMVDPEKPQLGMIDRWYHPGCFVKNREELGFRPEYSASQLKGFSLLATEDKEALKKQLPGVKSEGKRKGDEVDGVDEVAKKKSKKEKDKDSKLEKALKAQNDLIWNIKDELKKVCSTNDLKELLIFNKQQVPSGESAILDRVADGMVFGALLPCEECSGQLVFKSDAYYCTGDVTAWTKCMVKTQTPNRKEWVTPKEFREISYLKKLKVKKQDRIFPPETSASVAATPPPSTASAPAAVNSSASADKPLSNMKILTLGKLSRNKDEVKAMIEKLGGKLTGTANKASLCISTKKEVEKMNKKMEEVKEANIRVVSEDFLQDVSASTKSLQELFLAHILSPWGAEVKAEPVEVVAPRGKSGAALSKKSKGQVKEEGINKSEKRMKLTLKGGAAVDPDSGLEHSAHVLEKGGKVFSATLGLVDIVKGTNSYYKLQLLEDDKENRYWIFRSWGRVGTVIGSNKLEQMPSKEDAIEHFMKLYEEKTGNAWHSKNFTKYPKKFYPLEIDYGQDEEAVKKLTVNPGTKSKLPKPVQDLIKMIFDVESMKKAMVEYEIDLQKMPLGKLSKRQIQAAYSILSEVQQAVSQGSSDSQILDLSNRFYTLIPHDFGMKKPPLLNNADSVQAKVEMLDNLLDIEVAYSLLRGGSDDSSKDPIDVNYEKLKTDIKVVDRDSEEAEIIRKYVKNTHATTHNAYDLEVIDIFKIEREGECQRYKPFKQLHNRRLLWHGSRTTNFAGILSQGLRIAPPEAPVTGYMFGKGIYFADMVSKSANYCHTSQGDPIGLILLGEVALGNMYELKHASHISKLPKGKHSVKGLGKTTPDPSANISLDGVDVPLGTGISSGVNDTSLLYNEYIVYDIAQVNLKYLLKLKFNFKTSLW

This assay has as its target GFP-tagged WWP2 (human) (UniProt O00308). Nature of the assay: affinity purification with mass spectrometry; SILAC: U2OS cells with GFP-WWP2 (H) or GFP-NLS (L) lysed in EBC buffer (50 mM Tris pH 7.5, 150 mM NaCl, 0.5% NP-40, 2.5 mM MgCl2) with benzonase; GFP-Trap-A beads, washed with EBC-300; at least twofold enriched over control.

These are yes or no findings as the source states them, for the method shown. Binding seen in cells or lysates may run through a third protein. These calls come from enrichment with a bait or labelling near it, and not all partners need be listed.

On to “Ku80 (endogenous) (from UniProt P13010 1-732)”, for which the binding entry is “binds”.

For “PARP1 (from UniProt P09874 1-1014) (enzyme)”, the binding entry was “binds”.
